Data as given in publication PMC11557929, “Environment-sensitive turn-on fluorescent probe enables live cell imaging of myeloperoxidase activity during NETosis” (Communications Chemistry, 2024).

Columns and labels:
[1] = test system: MPO in hPMN; experiment: Colocalization with anti-MPO antibody in fixed hPMN; type: cell-based, human
[2] = test system: MPO in HL-60-derived granulocytes (dHL-60); experiment: Colocalization with anti-MPO antibody in fixed dHL-60 cells; type: cell-based, human

Structure (SMILES): CN(C)c1ccc2c3c(cccc13)C(=O)N(CCn1c(=S)[nH]c(=O)c3[nH]cnc31)C2=O [Probe 1]
- Mander's split coefficient M1 [1]: 0.66
- Mander's split coefficient M2 [1]: 0.74
- Pearson's correlation coefficient (PCC) ([1]; PMA, 1 µM probe, 2.6 µm Z-stack): 0.74
- Van Steensel's CCF ([1]; PMA, 1 µM probe, peak at dx 1, 2.6 µm Z-stack): 0.74
- Mander's split coefficient M1 ([2]; fixed dHL-60): 0.79
- Mander's split coefficient M2 ([2]; fixed dHL-60): 0.75
- Pearson's correlation coefficient (PCC) ([2]; fixed dHL-60, PMA, 1 µM probe, 2.6 µm Z-stack): 0.77
- Van Steensel's CCF ([2]; fixed dHL-60, PMA, 1 µM probe, peak at dx 0, 2.6 µm Z-stack): 0.77
